Data from publication doi:10.1101/2022.03.01.482527.
Results are given in words; binding and its absence hold for the method and conditions named. Binding seen in cells or lysates may run through a third protein. Some entries that bind do so weakly or less than the wild type.

Protein sequences, listed by entry. Tags and fused reporters are not part of them. Lines headed by an entry give the natural chain unless they say otherwise; changes in a name come on top.
UniProt P62745, whole entry: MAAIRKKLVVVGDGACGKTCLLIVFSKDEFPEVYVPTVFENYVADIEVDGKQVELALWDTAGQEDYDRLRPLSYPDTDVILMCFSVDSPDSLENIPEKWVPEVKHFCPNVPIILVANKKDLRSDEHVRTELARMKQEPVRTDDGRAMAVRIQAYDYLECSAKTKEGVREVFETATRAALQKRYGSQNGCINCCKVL

How the values were obtained:
Test in all cases: co-IP
GFP-RhoB Q63L = GFP-RhoB Q63L (UniProt P62745)
GFP-RhoB T19N = GFP-RhoB T19N (UniProt P62745)
GFP-RhoB wild type = GFP-RhoB wild type (UniProt P62745)

Measured: binding

HA-Solo (wild type) (from UniProt Q8TER5 1-1519)
binds: GFP-RhoB Q63L | GFP-RhoB T19N | GFP-RhoB wild type
